In article PMC6179184, “Interaction of the Warsaw breakage syndrome DNA helicase DDX11 with the replication fork-protection factor Timeless promotes sister chromatid cohesion” (PLoS Genetics, 2018):
Where a chain is given by its changes, count along the chain named. These are yes or no findings as the source states them, for the method shown. Binding seen in cells or lysates may run through a third protein. Some binding calls cover weakened binding; strength is not graded here. Sequences can lack the tags named with a protein.

Chains of the proteins cited; added tags and fusions are not shown.
UniProt Q9UNS1: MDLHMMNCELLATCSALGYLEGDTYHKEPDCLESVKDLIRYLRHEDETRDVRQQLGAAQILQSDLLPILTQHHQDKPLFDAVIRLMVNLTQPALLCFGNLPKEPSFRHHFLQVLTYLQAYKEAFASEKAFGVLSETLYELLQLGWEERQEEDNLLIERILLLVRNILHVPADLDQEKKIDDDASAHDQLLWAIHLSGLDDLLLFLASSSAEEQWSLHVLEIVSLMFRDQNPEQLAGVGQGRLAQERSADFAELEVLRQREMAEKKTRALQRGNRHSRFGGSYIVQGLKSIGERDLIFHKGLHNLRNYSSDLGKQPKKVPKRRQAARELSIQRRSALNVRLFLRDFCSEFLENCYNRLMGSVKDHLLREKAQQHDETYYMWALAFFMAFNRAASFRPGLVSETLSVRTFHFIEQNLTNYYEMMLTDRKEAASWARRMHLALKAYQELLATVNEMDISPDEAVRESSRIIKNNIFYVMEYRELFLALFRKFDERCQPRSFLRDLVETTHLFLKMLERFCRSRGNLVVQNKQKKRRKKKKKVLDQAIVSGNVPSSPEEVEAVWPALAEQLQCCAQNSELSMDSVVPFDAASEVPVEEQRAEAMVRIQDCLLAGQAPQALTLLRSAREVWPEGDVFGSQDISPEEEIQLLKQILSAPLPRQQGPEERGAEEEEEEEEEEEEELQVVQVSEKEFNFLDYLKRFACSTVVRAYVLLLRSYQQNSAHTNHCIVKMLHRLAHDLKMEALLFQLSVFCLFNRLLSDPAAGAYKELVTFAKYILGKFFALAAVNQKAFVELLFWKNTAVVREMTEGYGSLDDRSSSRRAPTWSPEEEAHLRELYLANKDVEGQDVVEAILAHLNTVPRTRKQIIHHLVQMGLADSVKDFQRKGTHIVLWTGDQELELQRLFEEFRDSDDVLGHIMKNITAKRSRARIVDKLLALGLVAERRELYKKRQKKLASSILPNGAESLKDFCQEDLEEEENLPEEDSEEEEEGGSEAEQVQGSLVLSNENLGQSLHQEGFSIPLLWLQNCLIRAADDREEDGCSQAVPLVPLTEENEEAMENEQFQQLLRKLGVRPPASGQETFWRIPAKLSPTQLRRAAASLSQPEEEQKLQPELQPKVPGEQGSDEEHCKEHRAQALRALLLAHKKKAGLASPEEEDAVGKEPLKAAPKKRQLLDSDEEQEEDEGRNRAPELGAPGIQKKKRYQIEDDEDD

Key:
Assay in all cases: co-IP; whole cell extracts of HEK 293T cells transiently expressing DDX11-3xFlag (wild type or mutants), anti-Flag M2 agarose beads, 50 mM Tris-HCl pH 8.0, 150 mM NaCl, 0.25% Triton X-100, 10% glycerol, 2 hr at 4 C, elution with Flag peptide; Western blot of endogenous partners
[1] = target: T1, DDX11-3xFlag KAK mutant (human) (UniProt Q96FC9)
T1 sequence: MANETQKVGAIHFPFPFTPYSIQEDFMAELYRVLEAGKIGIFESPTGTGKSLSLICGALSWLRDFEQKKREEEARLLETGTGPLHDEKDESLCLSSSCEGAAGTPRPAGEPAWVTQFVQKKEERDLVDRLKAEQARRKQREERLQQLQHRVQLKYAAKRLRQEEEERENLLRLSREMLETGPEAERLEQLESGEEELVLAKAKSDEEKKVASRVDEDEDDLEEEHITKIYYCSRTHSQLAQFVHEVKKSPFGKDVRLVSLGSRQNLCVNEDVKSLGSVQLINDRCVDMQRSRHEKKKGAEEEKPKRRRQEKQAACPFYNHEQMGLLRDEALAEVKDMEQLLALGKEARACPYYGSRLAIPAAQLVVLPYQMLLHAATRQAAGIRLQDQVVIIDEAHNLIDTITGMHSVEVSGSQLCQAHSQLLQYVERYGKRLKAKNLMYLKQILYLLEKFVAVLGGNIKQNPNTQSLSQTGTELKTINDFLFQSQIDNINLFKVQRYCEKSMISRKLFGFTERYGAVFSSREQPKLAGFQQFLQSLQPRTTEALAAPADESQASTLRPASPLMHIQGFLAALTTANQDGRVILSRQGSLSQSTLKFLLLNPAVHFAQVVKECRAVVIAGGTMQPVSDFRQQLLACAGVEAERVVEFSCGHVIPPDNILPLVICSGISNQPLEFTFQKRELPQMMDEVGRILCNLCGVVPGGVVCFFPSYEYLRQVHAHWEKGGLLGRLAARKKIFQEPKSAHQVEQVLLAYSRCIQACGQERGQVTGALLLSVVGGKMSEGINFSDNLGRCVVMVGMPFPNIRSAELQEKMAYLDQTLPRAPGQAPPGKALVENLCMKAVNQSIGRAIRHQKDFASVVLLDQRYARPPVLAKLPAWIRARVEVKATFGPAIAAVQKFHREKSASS

[2] = target: T2, DDX11-3xFlag Q23A mutant (human) (UniProt Q96FC9)
T2 sequence: T1 sequence with Q23A, K201E, A202Y, K203E

[3] = target: T3, DDX11-3xFlag KAE mutant (human) (UniProt Q96FC9)
T3 sequence: T1 sequence with K203E

Measured: binding

endogenous Timeless (HEK 293T) (from UniProt Q9UNS1 1-1208)
binds: [1] | [2] | [3]
